The campaign covered roughly 1,400 compounds. Fewer than 10 were called active. Not shown: some 8% with an inconclusive outcome. Calls follow the shape of the dose curve; as a rule, active = well fitted curve in the direction sought with a large enough effect; inconclusive = small, poorly fitted or top-dose-only effect, or another doubt; inactive = no such curve, though single readings can be large or run the other way. The list shows a part of the results.
Each compound was assayed against Transient receptor potential cation channel subfamily V member 1 (Homo sapiens) (UniProt Q8NER1) (assay: qHTS Assay for Compounds that Act as Potentiators of the Vanilloid Receptor 1: Hit Validation). Conditions: TRPV1-expressing cells, Fluo-8 calcium influx, capsaicin EC20; series mostly up to 42.1 µM; activity change, positive = potentiation: at the top concentration.
How it was run: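 Calcium influx via Fluo-8 fluorescence (480/520 nm) on FDSS: 10 s baseline, 3 min compound read, 2 min read after EC20 capsaicin. TRPV1-expressing cells plated 2000/well, grown overnight at 35.5 °C.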
Also: % of control where 0% means no effect.

Amino acid sequences for entries named in this document (tags omitted).
UniProt Q8NER1, whole entry, looked up: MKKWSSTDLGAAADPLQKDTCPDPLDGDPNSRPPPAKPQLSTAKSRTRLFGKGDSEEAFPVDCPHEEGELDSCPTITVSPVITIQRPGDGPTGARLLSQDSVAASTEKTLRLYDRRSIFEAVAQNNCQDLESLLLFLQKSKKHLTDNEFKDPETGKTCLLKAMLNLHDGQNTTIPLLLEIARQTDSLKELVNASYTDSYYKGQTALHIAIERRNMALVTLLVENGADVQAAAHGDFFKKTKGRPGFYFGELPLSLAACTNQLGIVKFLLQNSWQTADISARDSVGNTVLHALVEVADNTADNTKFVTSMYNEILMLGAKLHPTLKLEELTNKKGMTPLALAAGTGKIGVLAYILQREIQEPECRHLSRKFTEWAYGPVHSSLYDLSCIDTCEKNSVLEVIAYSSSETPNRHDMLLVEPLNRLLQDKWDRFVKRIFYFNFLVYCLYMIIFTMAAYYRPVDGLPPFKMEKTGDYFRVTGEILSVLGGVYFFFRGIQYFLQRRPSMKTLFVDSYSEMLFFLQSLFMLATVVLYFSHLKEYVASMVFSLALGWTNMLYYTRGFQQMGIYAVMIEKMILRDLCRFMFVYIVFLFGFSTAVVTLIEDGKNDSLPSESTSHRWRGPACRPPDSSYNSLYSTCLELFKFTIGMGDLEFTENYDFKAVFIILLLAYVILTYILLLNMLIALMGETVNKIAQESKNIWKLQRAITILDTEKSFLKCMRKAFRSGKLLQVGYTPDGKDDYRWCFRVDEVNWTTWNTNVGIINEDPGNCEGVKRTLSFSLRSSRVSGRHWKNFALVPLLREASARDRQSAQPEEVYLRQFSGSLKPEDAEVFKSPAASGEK

Activity change, positive = potentiation, inactive:
COc1cccc(C(=O)N(C)CC2CCN(CCc3cccc(C(F)(F)F)c3)CC2)c1 5.31%, CCc1nc(Nc2ccc3c(c2)OCCO3)c2oc3ccccc3c2n1 -39.2%, Cc1ccc(-c2csc(NC(=O)CN3CCOCC3)n2)cc1C -39.1%, Cc1ccc(OCC(=O)c2c[nH]c3ccccc23)c([N+](=O)[O-])n1 -9.4%, CCOC(=O)[C@H]1[C@H]2COc3ccc(Br)cc3[C@@H]2N2C(=O)c3cc(F)c(F)cc3NC(=O)[C@@]12C -38.8%, CC1CCC(NC(=O)C2(C)CCC(=O)N2Cc2cccnc2)CC1 (stereo not drawn) -8.11%, CC(=O)N(C)C1(c2nnnn2CCOC(=O)Nc2ccc(Cl)cc2)CCCCC1 -4.12%, Cc1ccc(C(=O)CSc2nc3ccc(C(=O)NCCN4CCCCC4)cc3c(=O)[nH]2)cc1 -5.24%, O=C1C(=O)N(Cc2cccnc2)C(c2cccc([N+](=O)[O-])c2)/C1=C(/O)c1ccc2c(c1)OCO2 (stereo not drawn) 0.0194%, Cc1cccc(N2CCN(C(=S)Nc3ccc4nc(N5CCOCC5)cc(C)c4c3)CC2C)c1 (stereo not drawn) -2.81%, CCc1ccc(CNC(=O)CCc2cn(C)c3ccccc23)cc1 -5.05%, S=C(Nc1ccccc1Cl)N(Cc1ccccc1)Cc1ccccn1 1.78%, O=C(NCc1nnc(SCC(=O)N2CCc3ccccc32)o1)c1cccs1 7.25%, O=C(O)c1ccc(CSc2nnc(-c3ccccc3Br)o2)cc1 -2.28%, CC(/C=C/c1ccc2c(c1)OCO2)=N\NC(=O)c1ccccc1 6.97%, COC(=O)CCC(=O)OC1(C)C(=O)C=C2C=C(C3CC3)N(c3ccccc3)C=C2C1=O (stereo not drawn) -6.19%, CCc1nnc(NC(=O)CSc2nnc(CNC(=O)c3cc(OC)c(OC)c(OC)c3)o2)s1 -9.07%, CCOc1cc(S(=O)(=O)NCc2ccccc2)ccc1F -4.71%, COc1cccc(C=Nc2ccc3c(c2)OCCO3)c1O -6.77%, O=C(OCc1cc2ccccc2[nH]c1=O)c1ccc([N+](=O)[O-])cc1 -10.2%, COc1ccc(CCNC(=O)CCCOc2cccc(C)c2C)cc1OC -32.2%, COC(=O)C1=C(C(=O)OC)[C@@H]2N(Cc3ccccc3)c3ccccc3[C@@]23C[C@@H](C(=O)OC)N(C(=O)COCc2ccccc2)C3=N1 -14.7%, Cc1ccc(C2Nc3cccc4cccc(c34)N2)cc1 -16.1%, Cc1cccc(C(C)n2nnc3ccccc32)c1O (stereo not drawn) -7.52%, CC(NC(=O)COC(=O)c1ccc(Cl)cc1O)c1ccc(F)cc1 (stereo not drawn) -32.2%, O=C(Cc1ccccc1)NCCSC1CCCCC1 -31.6%, COc1ccccc1C(=O)C1CCCN(Cc2cccc(OCCO)c2)C1 (stereo not drawn) -5.3%, Nn1c(SC/C=C/c2ccccc2)nnc1-c1cccnc1 1.13%, CCC(C)Sc1cccc(-c2nc3cc(C)ccn3c2NCc2ccccc2)c1 (stereo not drawn) -39%, C#CCn1c(=NC(=O)CN2C(=O)CCC2=O)sc2cccc(C)c21 -4.89%, CCOC(=O)C1=NOC(COc2ccccc2C=O)C1 (stereo not drawn) 2.69%, CC(C)(C)c1cc(CCC(=O)NCc2ccncc2)cc(C(C)(C)C)c1O -38.4%, O=C1NC(=O)/C(=C\c2ccc(N3CCOCC3)o2)N1 -10.5%, CC(C)CN(CC(C)C)S(=O)(=O)N1CCC(C(=O)NC2CCCCCCC2)CC1 -30.9%, CN(C)CCCN1C(=O)C(=O)/C(=C(/O)c2ccncc2)C1c1cccc(Br)c1 (stereo not drawn) -5.04%, Cc1cccnc1NC(=O)C(C)Oc1ccccc1 (stereo not drawn) 3.92%, CCN1CCCC1CNC(=O)c1ccc2c(c1)NC(=O)/C(=C\c1ccc(OC)c(OC)c1)S2 (stereo not drawn) -8.63%, COc1ccc(-c2nn(-c3ccccc3)cc2C(=O)NC(=S)Nc2cc(Cl)ccc2Cl)cc1 -10.8%, Cn1c(=O)c2ccccc2n(CC(=O)Nc2ccc3c(c2)OCCO3)c1=O -4.73%, CC(C)(C)c1ccc(NC(=O)c2ccsc2)cc1 -38.1%, COc1ccccc1NC(=S)Nc1cccc(F)c1 -15.2%, Nc1ccccc1C(=O)N1CCc2ccccc21 -8.96%, O=C(/C=C/c1ccccc1)Nc1cccnc1Cl -35.6%, O=C(NCc1ccncc1)c1ccc(Oc2ccccc2)cc1 -35.7%, CC(C)c1ccc(/C=C/C(=O)N2CCOCC2)cc1 -38.6%, CCc1ccc(C(=O)CSc2n[nH]c(-c3ccncc3)n2)cc1 -4.3%, CCOC(=O)c1ccc(NC(=O)NCc2ccccc2OC)cc1 -33.4%, CC1=C(C)CC(C(=O)NCc2ccccc2F)C(C(=O)O)C1 (stereo not drawn) -7.39%, Cc1nn(Cc2ccc(Cl)c(Cl)c2)c(C)c1NC(=O)c1cc(-c2ccc3c(c2)OCO3)on1 -4.56%, COC(=O)c1ccc(CNC(=O)COC(=O)CCC2CCCC2)cc1 -27.4%, CSc1ncccc1C(=O)OCc1ccc(Br)cc1 -6.08%, CCOC(=O)[C@H]1[C@H]2COc3ccc(C)cc3[C@@H]2N2C(=O)c3cc(F)ccc3NC(=O)[C@@]12C -39.2%, CCC(C(=O)O)n1nc(-c2ccccc2)c2cc(Cl)ccc21 (stereo not drawn) -0.771%, O=C1[C@H]2[C@@H](c3ccc(F)cc3)N3C(=O)N(c4cccc(Br)c4)C(=O)[C@@]3(Cc3ccccc3)[C@H]2C(=O)N1C1CCCCC1 -7.1%, CCCCn1nc(NC(=O)COC)c2cc3ccc(C)cc3nc21 -36.9%, Cc1cc(N/N=C/c2ccccc2)nc(N2CCOCC2)n1 -37%, CCC(CO)NCc1ccc(OCC(O)c2ccccc2)c(OC)c1 (stereo not drawn) -0.957%, COc1cc(OC)c(NC(=O)CCc2nc(-c3ccc(C)cc3)no2)cc1Cl -4.21%, Cc1ccc(S(=O)(=O)N(CC(=O)Nc2ccccc2C(=O)O)c2ccccc2C)cc1 -3.23%, CCc1ccc(NC(=O)c2ccc3ncsc3c2)cc1 -37.9%, Cc1noc(C)c1C(=O)NCCCN1CCCC1=O -10.5%, COCCCNc1nc(N)c([N+](=O)[O-])c(NCc2ccccc2)n1 8.3%, Cc1cc(C)n2nc(C(=O)N3CCCC(Nc4ccc(C(C)C)cc4)C3)cc2n1 (stereo not drawn) -38.9%, Cc1ccc(-n2nc(C)cc2NC(=O)CC#N)cc1 7.28%, Cc1cc(C(=O)N/N=C/c2cccc([N+](=O)[O-])c2)c(C)n1-c1ccccc1 -38.6%, Nn1c(Cc2ccccc2)nc2cc(Cl)ccc2c1=O -8.59%, CCOC(=O)N1CCN(C(=O)C2CCN(c3ncnc4c3sc3cccc(F)c34)CC2)CC1 -5.75%, C/C(=N/NC(=O)CNC(=O)C1COc2ccccc2O1)c1ccc2c(c1)OCCO2 (stereo not drawn) -2.72%

— PubChem BioAssay AID623959 (National Center for Advancing Translational Sciences (NCATS), 2012)
